Assay results: publication PMC8228889
These are yes or no findings as the source states them, for the method shown. In cells and extracts the contact can be indirect. Some binding calls cover weakened binding; strength is not graded here. Sequences can lack the tags named with a protein.

The chains behind the UniProt entries cited, without tags or fusion partners.
UniProt Q86U86: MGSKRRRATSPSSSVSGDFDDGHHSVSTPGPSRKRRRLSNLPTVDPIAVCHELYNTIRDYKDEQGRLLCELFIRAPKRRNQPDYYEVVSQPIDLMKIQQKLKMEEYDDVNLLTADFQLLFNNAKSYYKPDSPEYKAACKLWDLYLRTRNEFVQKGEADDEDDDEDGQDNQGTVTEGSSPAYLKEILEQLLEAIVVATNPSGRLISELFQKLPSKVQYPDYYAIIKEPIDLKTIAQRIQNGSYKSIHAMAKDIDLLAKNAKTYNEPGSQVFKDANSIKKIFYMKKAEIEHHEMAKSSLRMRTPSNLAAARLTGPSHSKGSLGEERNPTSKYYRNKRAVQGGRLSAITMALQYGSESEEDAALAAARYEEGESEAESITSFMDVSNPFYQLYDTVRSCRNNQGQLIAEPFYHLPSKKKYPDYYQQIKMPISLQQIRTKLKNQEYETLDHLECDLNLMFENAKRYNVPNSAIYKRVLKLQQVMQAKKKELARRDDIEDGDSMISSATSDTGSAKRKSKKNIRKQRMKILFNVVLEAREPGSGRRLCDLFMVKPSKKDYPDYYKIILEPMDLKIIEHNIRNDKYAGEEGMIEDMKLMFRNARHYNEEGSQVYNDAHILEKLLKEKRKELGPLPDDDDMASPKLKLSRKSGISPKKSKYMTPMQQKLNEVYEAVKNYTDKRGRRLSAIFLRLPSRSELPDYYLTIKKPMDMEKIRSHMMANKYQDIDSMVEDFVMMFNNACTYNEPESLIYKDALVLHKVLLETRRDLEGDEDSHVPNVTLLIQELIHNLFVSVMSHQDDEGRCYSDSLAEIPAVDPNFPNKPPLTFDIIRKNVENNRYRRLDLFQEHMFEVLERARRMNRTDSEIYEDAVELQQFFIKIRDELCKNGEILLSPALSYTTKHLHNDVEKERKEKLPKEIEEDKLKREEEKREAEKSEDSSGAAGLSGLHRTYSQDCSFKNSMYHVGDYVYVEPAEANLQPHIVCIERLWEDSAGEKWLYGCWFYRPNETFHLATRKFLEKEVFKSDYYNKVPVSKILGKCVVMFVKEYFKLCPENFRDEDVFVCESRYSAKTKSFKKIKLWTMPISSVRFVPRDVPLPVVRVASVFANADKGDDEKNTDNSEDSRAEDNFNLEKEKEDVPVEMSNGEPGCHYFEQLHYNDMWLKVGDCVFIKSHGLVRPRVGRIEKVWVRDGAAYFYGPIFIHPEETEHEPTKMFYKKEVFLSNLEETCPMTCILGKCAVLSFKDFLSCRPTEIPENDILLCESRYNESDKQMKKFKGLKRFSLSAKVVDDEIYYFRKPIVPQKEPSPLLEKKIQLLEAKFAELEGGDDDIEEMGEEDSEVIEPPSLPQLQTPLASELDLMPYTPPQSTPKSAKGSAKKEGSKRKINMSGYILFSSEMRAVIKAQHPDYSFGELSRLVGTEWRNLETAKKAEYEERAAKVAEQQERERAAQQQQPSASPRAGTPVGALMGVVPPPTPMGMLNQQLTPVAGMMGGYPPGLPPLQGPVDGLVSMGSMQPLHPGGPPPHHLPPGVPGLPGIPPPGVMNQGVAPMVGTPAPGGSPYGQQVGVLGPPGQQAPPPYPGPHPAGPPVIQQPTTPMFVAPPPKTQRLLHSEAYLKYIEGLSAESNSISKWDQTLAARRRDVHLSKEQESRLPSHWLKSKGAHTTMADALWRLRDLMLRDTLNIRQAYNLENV

Assays:
Assay in all cases: pull-down; recombinant His-tagged bait on Ni-NTA beads incubated with 1 mg total HeLa cell lysate overnight at 4 °C, washed (200 mM NaCl, 0.1% Tween-20), Western blot; HMG domain also with or without 50 µg RNAse A; only the target purified
[1] = biological target: T1, 6xHis-tagged YTHDF2 (1–384) (UniProt Q9Y5A9)
T1 sequence: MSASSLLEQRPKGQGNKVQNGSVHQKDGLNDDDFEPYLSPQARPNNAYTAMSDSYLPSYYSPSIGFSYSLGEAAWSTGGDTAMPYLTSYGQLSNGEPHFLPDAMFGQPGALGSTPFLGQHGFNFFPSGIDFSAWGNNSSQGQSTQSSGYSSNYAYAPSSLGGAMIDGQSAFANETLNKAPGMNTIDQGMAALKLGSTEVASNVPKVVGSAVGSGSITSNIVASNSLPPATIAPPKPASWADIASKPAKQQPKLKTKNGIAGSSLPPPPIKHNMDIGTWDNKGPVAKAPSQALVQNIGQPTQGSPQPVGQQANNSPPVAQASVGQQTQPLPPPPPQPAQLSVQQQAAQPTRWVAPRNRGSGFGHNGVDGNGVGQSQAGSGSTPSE

[2] = biological target: T2, 6xHis-tagged YTHDF2 (1–579) (UniProt Q9Y5A9)
T2 sequence: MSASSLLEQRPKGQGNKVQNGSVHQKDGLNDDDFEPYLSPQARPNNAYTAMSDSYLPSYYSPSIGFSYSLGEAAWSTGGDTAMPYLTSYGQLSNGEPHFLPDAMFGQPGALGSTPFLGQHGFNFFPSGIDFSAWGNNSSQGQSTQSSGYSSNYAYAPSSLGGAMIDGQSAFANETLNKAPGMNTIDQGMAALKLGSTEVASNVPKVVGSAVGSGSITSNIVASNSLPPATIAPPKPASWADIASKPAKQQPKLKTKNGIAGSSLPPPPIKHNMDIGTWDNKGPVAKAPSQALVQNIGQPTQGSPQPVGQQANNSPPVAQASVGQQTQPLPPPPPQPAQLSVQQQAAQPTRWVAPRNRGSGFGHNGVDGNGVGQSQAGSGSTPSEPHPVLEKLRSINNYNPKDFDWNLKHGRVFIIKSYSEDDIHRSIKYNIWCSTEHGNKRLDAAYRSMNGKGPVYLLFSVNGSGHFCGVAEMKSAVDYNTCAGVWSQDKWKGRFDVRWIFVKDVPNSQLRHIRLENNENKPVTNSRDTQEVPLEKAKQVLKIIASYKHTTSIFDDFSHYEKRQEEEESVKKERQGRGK

[3] = biological target: T3, 6xHis-tagged YTHDF2 (384–579) (UniProt Q9Y5A9)
T3 sequence: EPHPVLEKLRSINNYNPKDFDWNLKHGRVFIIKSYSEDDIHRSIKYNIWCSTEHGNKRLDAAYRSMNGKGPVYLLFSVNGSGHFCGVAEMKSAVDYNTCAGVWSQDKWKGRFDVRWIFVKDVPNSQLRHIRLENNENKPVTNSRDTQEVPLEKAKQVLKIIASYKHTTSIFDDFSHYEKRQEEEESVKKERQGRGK

Substance: PBRM1 (protein polybromo-1) (from UniProt Q86U86 1-1689)
- binding [1]: no binding
- binding [2]: binds
- binding [3]: binds
